Results are given in words; binding and its absence hold for the method and conditions named. Binding seen in cells or lysates may run through a third protein. Some binding calls cover weakened binding; strength is not graded here.

Protein sequences, listed by entry. Tags and fused reporters are not part of them. Lines headed by an entry give the natural chain unless they say otherwise; changes in a name come on top.
UniProt Q13315: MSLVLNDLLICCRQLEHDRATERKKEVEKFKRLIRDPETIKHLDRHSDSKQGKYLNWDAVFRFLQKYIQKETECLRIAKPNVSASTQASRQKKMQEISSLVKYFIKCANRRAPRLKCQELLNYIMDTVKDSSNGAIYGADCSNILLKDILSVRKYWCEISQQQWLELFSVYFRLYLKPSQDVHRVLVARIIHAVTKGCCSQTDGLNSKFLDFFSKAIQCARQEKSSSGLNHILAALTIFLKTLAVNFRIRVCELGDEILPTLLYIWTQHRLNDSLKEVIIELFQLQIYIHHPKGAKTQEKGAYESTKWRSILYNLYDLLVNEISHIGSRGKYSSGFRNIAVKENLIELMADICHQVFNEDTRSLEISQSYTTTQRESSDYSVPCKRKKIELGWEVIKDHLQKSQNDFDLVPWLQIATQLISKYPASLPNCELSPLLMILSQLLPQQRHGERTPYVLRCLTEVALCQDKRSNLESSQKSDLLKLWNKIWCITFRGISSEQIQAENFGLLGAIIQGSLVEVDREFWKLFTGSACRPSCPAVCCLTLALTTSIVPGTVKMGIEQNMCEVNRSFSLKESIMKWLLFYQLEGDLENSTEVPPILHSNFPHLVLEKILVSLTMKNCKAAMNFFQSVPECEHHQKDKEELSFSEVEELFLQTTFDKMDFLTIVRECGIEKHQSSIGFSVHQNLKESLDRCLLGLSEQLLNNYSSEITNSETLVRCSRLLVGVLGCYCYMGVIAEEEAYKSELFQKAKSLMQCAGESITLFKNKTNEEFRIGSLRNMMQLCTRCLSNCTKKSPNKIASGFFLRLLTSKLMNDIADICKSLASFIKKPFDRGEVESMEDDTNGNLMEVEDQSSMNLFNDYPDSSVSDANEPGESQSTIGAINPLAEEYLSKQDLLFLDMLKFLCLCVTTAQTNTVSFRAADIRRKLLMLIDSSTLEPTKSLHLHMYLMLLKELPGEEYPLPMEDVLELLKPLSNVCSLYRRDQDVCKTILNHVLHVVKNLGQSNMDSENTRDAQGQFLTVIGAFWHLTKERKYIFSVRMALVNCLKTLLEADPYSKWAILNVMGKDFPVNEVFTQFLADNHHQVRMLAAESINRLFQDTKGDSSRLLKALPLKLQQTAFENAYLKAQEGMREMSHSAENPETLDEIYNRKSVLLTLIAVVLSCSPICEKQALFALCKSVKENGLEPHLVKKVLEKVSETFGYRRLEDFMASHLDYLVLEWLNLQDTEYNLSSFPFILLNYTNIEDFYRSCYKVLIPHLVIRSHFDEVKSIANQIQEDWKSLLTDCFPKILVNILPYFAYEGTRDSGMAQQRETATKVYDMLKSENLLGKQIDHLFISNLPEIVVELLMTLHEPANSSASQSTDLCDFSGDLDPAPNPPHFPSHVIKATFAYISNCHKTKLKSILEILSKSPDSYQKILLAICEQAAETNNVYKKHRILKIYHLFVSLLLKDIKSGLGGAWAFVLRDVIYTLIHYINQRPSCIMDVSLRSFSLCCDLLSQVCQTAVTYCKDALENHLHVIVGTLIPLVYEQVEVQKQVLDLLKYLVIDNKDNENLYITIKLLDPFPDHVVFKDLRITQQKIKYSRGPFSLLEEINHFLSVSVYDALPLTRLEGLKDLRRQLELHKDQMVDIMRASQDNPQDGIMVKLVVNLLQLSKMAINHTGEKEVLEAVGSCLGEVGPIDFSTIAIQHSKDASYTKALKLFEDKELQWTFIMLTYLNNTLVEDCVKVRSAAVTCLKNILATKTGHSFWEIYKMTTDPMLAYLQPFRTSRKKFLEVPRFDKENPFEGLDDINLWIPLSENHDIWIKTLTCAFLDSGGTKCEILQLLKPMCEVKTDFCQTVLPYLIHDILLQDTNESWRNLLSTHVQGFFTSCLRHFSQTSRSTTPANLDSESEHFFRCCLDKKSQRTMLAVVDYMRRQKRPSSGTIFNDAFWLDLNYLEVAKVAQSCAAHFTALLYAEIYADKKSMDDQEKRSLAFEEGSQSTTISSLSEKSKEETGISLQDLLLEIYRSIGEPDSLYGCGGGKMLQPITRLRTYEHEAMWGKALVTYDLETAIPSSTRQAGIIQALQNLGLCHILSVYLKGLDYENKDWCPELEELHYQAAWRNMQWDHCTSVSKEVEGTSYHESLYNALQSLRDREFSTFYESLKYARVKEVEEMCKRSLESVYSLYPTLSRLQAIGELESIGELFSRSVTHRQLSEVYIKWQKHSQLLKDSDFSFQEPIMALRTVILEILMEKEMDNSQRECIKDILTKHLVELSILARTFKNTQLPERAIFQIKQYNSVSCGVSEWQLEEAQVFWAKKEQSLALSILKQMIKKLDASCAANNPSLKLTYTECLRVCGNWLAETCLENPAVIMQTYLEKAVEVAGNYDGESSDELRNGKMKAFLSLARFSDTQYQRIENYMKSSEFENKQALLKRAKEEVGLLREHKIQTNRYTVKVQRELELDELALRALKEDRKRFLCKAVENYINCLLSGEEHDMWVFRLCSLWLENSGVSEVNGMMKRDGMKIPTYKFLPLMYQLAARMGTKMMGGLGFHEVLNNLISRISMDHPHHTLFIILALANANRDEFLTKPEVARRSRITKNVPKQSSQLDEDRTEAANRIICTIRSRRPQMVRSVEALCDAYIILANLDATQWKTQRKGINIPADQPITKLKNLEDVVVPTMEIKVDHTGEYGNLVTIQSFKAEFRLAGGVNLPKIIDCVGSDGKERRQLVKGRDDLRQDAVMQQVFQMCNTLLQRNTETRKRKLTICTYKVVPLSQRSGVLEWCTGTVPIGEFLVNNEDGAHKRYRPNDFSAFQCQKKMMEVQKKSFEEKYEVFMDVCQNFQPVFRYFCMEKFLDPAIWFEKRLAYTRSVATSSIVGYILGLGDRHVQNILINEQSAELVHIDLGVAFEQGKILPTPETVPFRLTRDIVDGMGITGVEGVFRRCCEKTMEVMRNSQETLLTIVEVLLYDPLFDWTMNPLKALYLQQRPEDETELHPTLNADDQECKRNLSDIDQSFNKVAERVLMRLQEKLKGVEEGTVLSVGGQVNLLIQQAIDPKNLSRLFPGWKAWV
UniProt Q12888: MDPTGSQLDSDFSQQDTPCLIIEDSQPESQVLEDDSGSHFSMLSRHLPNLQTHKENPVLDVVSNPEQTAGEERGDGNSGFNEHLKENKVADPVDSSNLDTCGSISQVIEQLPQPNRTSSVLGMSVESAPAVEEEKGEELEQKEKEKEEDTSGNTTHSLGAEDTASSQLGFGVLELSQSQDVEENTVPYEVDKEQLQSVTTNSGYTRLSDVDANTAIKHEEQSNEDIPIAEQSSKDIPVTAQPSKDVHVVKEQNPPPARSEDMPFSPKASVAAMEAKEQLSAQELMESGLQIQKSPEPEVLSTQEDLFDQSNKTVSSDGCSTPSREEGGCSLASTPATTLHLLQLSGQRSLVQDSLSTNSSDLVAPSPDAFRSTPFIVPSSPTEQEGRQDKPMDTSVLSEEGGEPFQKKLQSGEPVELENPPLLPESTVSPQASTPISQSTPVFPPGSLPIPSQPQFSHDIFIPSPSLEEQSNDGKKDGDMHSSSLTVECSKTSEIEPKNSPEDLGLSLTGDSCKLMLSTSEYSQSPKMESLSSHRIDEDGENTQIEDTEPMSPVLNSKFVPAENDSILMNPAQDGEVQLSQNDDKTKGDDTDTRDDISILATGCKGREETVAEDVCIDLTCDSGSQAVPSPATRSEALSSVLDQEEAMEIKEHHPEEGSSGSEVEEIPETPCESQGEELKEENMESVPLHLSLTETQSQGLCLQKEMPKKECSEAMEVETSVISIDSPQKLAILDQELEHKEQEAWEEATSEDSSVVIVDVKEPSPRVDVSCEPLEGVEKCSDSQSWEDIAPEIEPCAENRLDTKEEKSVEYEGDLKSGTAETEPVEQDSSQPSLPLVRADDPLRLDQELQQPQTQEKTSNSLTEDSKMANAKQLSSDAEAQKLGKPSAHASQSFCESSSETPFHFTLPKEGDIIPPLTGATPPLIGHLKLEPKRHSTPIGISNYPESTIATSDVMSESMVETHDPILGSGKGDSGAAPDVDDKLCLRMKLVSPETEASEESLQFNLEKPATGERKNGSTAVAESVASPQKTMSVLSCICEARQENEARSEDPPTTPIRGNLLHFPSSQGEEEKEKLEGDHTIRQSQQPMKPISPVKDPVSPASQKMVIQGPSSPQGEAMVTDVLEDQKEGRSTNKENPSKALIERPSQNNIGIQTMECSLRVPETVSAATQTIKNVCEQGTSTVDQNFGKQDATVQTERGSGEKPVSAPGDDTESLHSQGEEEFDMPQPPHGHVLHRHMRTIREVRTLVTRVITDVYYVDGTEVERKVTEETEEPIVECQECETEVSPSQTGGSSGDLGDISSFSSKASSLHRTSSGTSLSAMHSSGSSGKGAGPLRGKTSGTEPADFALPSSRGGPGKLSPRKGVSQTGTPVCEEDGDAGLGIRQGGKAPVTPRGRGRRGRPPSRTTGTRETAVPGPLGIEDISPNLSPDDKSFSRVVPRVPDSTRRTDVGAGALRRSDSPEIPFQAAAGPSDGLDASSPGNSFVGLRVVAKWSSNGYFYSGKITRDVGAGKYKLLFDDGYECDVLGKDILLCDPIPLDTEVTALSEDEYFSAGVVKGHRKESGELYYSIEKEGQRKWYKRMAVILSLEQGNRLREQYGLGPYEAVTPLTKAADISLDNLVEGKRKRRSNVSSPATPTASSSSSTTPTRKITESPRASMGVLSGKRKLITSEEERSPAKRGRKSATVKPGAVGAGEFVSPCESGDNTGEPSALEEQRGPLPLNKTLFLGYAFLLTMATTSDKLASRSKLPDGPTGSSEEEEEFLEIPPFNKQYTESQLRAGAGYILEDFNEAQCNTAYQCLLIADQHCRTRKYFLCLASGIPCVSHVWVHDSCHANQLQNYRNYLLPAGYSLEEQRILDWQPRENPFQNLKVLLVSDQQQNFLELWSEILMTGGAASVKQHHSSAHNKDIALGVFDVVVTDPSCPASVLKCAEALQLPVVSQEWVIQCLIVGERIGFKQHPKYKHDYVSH
UniProt Q15022: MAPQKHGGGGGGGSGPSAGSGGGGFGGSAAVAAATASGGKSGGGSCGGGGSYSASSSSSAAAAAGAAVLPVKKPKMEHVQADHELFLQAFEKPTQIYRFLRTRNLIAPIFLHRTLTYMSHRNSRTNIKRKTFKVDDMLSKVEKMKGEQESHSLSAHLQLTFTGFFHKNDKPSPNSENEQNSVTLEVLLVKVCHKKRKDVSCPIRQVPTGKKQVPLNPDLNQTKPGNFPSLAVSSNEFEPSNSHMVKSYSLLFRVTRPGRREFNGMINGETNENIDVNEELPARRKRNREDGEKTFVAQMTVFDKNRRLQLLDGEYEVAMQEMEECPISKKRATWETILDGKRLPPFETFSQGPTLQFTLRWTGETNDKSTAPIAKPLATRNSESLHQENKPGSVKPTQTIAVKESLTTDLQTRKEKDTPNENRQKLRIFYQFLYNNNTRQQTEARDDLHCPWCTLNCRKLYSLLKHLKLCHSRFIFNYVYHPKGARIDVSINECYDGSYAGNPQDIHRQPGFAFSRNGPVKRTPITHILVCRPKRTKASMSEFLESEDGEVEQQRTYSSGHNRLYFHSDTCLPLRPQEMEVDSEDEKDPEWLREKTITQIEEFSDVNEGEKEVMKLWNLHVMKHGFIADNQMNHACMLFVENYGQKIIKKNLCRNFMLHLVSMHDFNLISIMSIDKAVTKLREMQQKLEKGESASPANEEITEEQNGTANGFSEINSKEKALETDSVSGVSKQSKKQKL

Assay [1] addresses ATM (ataxia telangiectasia mutated) kinase (human (endogenous in H9/WA09 hESCs)) (UniProt Q13315). Put plainly: co-IP; antibody (anti-53BP1, anti-ATM or IgG control) bound to protein A and protein G Dynabeads; hESC nuclear extract incubated with the beads 5 h at 4°C, washed with PBST, eluted with 0.1 M glycine pH 2.3; western blot. Background: In western blotting, separated proteins are transferred to a membrane and probed.

The target of assay [2] is 53BP1 (p53 binding protein 1) (human (endogenous in H9/WA09 hESCs)) (UniProt Q12888). Described as above.

Turning to “SUZ12 (a core subunit of PRC2) (from UniProt Q15022 1-739)”, the binding entry in assay [1] and in assay [2] was “no binding” each time. Take “53BP1 (p53 binding protein 1) (from UniProt Q12888 1-1972)”: in assay [1], the binding entry is recorded as “binds”.
